# According to patent publication US20030004092A1:
# How the values were obtained:
# [1] = target: Mxi1 activation domain fusion protein (pJG4-5 plasmid); assay: yeast two-hybrid, lacZ reporter (leu- not determined)
# [2] = target: Max activation domain fusion protein (pJG4-5 plasmid); assay: as above
binder,measurement,setting,value
"LexA/cdr2^65-140 bait construct (protein, not shown: large carriers) MNEQHAKVYEQLDVTARELEETNQKLVADSKASQQKILSLTETIECLQTNIDHLQSQVEELKSSGQGRRSPGKCDQ",binding,[1],no binding
same,binding,[2],no binding

# No constants are given. Whether binding was seen depends on the method and setting.
